These results are taken from article PMC12040169 (PLOS Biology, 2025).

Some of the results follow.

In this test the test system is T1, CTL2-GFP (C. trachomatis L2/434/Bu, GFP-expressing).
T1 construct: L2/434/Bu, GFP-expressing
Also noted: species or system HeLa; Intracellular C. trachomatis growth in HeLa cells, bulk GFP fluorescence relative to DMSO. Conditions: bulk GFP, single well; 28.5 h, 10 µM; inhibitor.
For `O=C(NC1(C#Cc2cnc3ccccc3c2)CCCCC1)C1CCCO1` (centres unmarked) [CBK283085], the “% of control remaining” value was 118.868%. To `COc1cc(S(=O)(=O)NCCCn2ccnc2)ccc1Cl` [CBK269186] belongs 124.377%; to `CCNc1n[nH]c(N)c1-c1nc(-c2ccc(OC)cc2)no1` [CBK288557], 118.939%; to `COc1ccccc1C(=O)Nc1ccccc1N1CCN(C)CC1` [CBK267938], 90.1011%. For the compound `COc1cc(C(=O)N2CCC3(CC2)CC(=O)c2ccc(C)cc2O3)cc(-c2ccc(OC)c(OC)c2)c1` [CBK168282], the “% of control remaining” value stood at 145.89%. To `Cc1ncc(-c2ccc3ccccc3c2)s1` [CBK019439B] belongs 145.795%. To `O=S(=O)(NCCN1CCCC1)c1cccc2nsnc12` [CBK261132] belongs 124.821%.

For `Cc1c(CCC(=O)N2CCCC(C(=O)O)C2)c(=O)oc2c(C)c(O)ccc12` (centres unmarked) [CBK286764], the “% of control remaining” value turned out to be 134.196%. `N#Cc1c(NC(=O)CN2CCCCC2)sc2c1CCCC2` [CBK261619]: the “% of control remaining” value was 100%.

With `CCn1cc(CN2CCOC(c3cccc(-c4ccc(OC)cc4)n3)C2)c(C)n1` (centres unmarked) [CBK286250], the “% of control remaining” value is on record as 130.867%. With `O=C1CCCCCC1C(Nc1ccc2ccccc2c1)c1cccnc1` (centres unmarked) [CBK293919] the figure was 139.129%; with `CN(C)S(=O)(=O)c1ccc(C(=O)Nc2ccccc2O)cc1` [CBK267809], 119.116%.

In the case of `FC(F)Oc1ccc(NC(=S)NCCN2CCOCC2)cc1` [CBK028000], the “% of control remaining” value is given as 143.873%.

On to `CCCC(=O)c1ccc(S(=O)(=O)N2CCCN(Cc3c(C)[nH]c(C(=O)OCC)c3C)CC2)cc1` [CBK062947], for which the “% of control remaining” value came to 106.565%.

In the case of `COc1cccc(CNc2ccc(N3CCOCC3)cc2)c1OCc1ccccc1F` [CBK074406], the “% of control remaining” value is listed as 37.6857%. To `COc1ccc2ncc(C(=O)O)c(Nc3ccccc3C)c2c1` [CBK269522C] belongs 135.344%. To `O=C(Nc1cccnc1)N1CCCC(CO)C1` (centres unmarked) [CBK156068] belongs 98.9536%; to `CC(Oc1ccc(C(C)(C)C)cc1)C(=O)Nc1nnc[nH]1` (centres unmarked) [CBK267431], 146.473%.

Turning to `Cc1cccc(-c2ccc3c(c2)C(=O)N2CC[C@H](NC(=O)c4cnccn4)[C@H]2C(=O)N3)c1C` [CBK289348], the “% of control remaining” value turned out to be 118.034%. Turning to `O=C(c1ccc(N2CCCC2)cc1)N1CCc2sccc2C1c1ccco1` (centres unmarked) [CBK285707], the “% of control remaining” value came out at 114.752%.

`COC(=O)c1cc(NC(=O)NCCC2=CCCCC2)cc(C(=O)OC)c1` [CBK044120]: the “% of control remaining” value is listed as 45.4259%.

For the compound `COc1ccc(OC)c(-n2c(SCC(=O)N3CCC(C(=O)O)CC3)nc3ccccc3c2=O)c1` [CBK296981], the “% of control remaining” value was 156.088%. As to `COCCNc1cc(-c2ccncc2)ncn1` [CBK037729], the “% of control remaining” value came out at 151.263%. With `Cc1ccccc1OCc1nn2c(COc3ccccc3)nnc2s1` [CBK267230] the figure was 145.804%. In the case of `Cc1c(CN2CCC(CO)C2)cnn1Cc1ccccc1` (centres unmarked) [CBK282113], the “% of control remaining” value came to 131.572%. With `CC(=O)NCCSc1nc2ccccc2nc1C(F)(F)F` [CBK105303] the figure was 115.362%; with `CCOC(=O)c1c(-c2cccs2)csc1NC(=O)CN1CCCCCC1` [CBK265294G], 116.391%; with `CCCn1ncc(C(=O)N2CCC(Oc3ccccc3F)CC2)c1C` [CBK282169], 99.6565%. To `COc1ccc(CC(=O)N(C)Cc2nnc3ccccn23)cc1` [CBK304935] belongs 84.5456%; to `CCOC(=O)N1CCC(NC(=O)N2CCC(C(=O)O)CC2)CC1` [CBK156080], 97.8837%. For the compound `CN1CCN(Cc2ccc(-c3ccc(C(N)=O)cc3)nc2)CC1` [CBK306750], the “% of control remaining” value was determined as 109.464%. To `O=C(Nc1ccccc1C(=O)O)c1ccc(S(=O)(=O)N2CCCCC2)cc1` [CBK265174] belongs 134.578%; to `Cn1cccc1C(=O)N[C@H]1CCN2C(=O)N(c3cccc(F)c3)C(=O)[C@@H]2C1` [CBK289549], 97.5368%. To `Cc1ccc(=O)n(CC(=O)N2CCC[C@@H]3NC(=O)c4ccccc4OCCCCC[C@@H]32)n1` [CBK292100] belongs 116.641%; to `CCc1ccc2c(c1)C(CCNC(=O)c1sccc1C)C(=O)N2` (centres unmarked) [CBK306459], 145.415%.

For `COC(=O)c1c(C)oc(C)c1S(=O)(=O)Nc1ccc(C(C)C)cc1` [CBK057115], the “% of control remaining” value worked out at 150.002%. With `O=C(c1cscn1)N1CCN(c2ncccn2)CC1` [CBK144506] the figure was 116.851%; with `CN(C)C(CNc1nccnc1-c1ccc(CO)cc1)c1cccnc1` (centres unmarked) [CBK038038], 138.712%.

Take `CCOCCCNc1c2c(c(C#N)c3nc4ccccc4n13)CCC2` [CBK263151]: the “% of control remaining” value is on record as 109.505%.

`Cc1nccn1CC1(O)CCN(C(=O)C2(c3ccccc3)CC2)CC1` [CBK284659]: the “% of control remaining” value was determined as 84.5194%. As to `O=C(O)c1ccccc1C1Nc2ccccc2S(=O)(=O)N1Cc1ccccc1` (centres unmarked) [CBK286587], the “% of control remaining” value is 92.4523%.

For the compound `OC(CNc1nccnc1-c1ccco1)COc1ccccc1` (centres unmarked) [CBK036862], the “% of control remaining” value is recorded as 115.382%. To `COc1cccc(CN2CCCN(c3nccc(OCC4COc5ccccc5O4)n3)CC2)c1OC` (centres unmarked) [CBK115476T] belongs 114.83%.

Consider `CN(C)C(=O)c1cccc(NC(=O)C2CCCCC2)c1` [CBK304515], for which the “% of control remaining” value worked out at 123.452%. With `CCN1CC2(CCN(Cc3cccc(-c4ccccn4)c3)CC2)CC1=O` [CBK307399] the figure was 101.535%. Turning to `CN(C)c1cccc(-c2cncc(NCCCN3CCOCC3)n2)c1` [CBK065635], the “% of control remaining” value amounted to 172.307%. To `O=C1c2ccccc2CN1c1cccc2ccccc12` [CBK113190] belongs 104.276%. With `Cn1nccc1C(=O)NC(Cc1cccs1)c1nccs1` (centres unmarked) [CBK285055] the figure was 140.552%; with `O=C(NC1CCCC1)c1ccc(-c2cnc3[nH]c(=O)n(CCCN4CCOCC4)c3n2)cc1` [CBK064829], 104.337%. With `O=[N+]([O-])c1ccc(Oc2cccc3cccnc23)c(C(F)(F)F)c1` [CBK002739] the figure was 131.004%; with `COc1cc2[nH]c(=S)n3nc(-c4ccncc4)nc3c2cc1OC` [CBK288559], 128.298%. As for `Cc1ccc(-c2nnc(C3CCCN(C(=O)C4CC4)C3)o2)s1` (centres unmarked) [CBK285516], the “% of control remaining” value is given as 141.731%. With `Nc1cccc(-c2nc(-c3cncnc3)cnc2N)c1` [CBK063907] the figure was 120.103%. To `O=C(O)C1CCCN(C(=O)NCc2ccc3c(c2)OCO3)C1` (centres unmarked) [CBK161346] belongs 113.293%; to `CCCC(=O)N1CCn2c(nnc2-c2cncc(Br)c2)C1` [CBK304761], 112.116%; to `CS(=O)(=O)NCC1CCCCN1Cc1ccc(-n2cccn2)cc1` (centres unmarked) [CBK305587], 143.795%. Regarding `COc1cccc(C(=O)N2CCN(S(=O)(=O)c3ccc([N+](=O)[O-])cc3)CC2)c1` [CBK157533], the “% of control remaining” value is 56.6375%.

As to `Cc1csc2c(C3CCCN(C(=O)c4cccnc4)C3)nc(C)n12` (centres unmarked) [CBK283329], the “% of control remaining” value was 126.189%. Take `O=C(O)c1cccnc1SC1CC(=O)N(Cc2ccccc2)C1=O` (centres unmarked) [CBK263375]: the “% of control remaining” value was determined as 67.4253%. To `COc1ccc(C[C@@]23CC[C@H](NC(=O)NCCc4ccccc4)C[C@@H]2N(C)CC3)cc1` [CBK024127] belongs 90.3127%.

In the case of `CN(C)CCNC(=O)C(=O)Nc1ccc(Cl)cc1` [CBK266965], the “% of control remaining” value is listed as 121.696%. Take `CC(=O)N1CC[C@H]2NC(=O)CNC(=O)C3(CCCC[C@H]2C1)CCN(C(=O)CCn1ccnc1)CC3` [CBK292138]: the “% of control remaining” value was 81.5556%. To `CC(=O)Nc1cccc(-c2cnc3[nH]c(=O)n(C4CC4)c3n2)c1` [CBK064859] belongs 152.058%; to `O=C(Nc1n[nH]c2ccccc12)c1ccccc1` [CBK017993], 179.309%. To `O=C(NCCN1CCCC1=O)Nc1ccccc1` [CBK263517] belongs 89.0677%; to `CN1CCN(c2cccc(-c3cc(C(F)(F)F)cc(C(F)(F)F)c3)n2)CC1` [CBK036982], 162.046%. To `O=c1cc(N2CCCCC2)cnn1Cc1nccn1C1CC1` [CBK307484] belongs 144.628%; to `C/C(=N\NC(=O)c1nc(-c2ccccc2)cc(-c2ccccc2)n1)c1cccnc1` [CBK262827], 108.479%. On to `O=C(O)c1ccc(CNCCN2CCOCC2)cc1` [CBK287223], for which the “% of control remaining” value was determined as 131.753%. To `Cc1noc(C)c1NC(=O)CCc1cccnc1` [CBK200392] belongs 89.254%; to `CN1C(=O)COc2ccccc2C/C=C/C[C@@H]2[C@H]1CCCN2C(=O)c1cnn2cccnc12` [CBK292083], 97.3466%; to `CC(C)(C)SCCNS(=O)(=O)c1ccc(Cl)c(Cl)c1` [CBK057015], 125.603%. With `CCOC(=O)CCCNC(=O)N1CCN(c2ccccc2OC)CC1` [CBK155618] the figure was 107.343%; with `Cc1cccc2c3c([nH]c12)C1(CCCN(Cc2ccc(F)cc2Cl)C1)NCC3` (centres unmarked) [CBK039339], 69.6981%. With `O=c1[nH]c2ccccc2n1C1CCN(S(=O)(=O)c2cc(Cl)cc(Cl)c2O)CC1` [CBK149694] the figure was 120.929%; with `O=C(O)C(=O)c1cn(Cc2ccccc2Cl)c2ccccc12` [CBK287035], 124.721%.

Turning to `Oc1cccnc1N1CCN(Cc2ccccc2)CC1` [CBK045849], the “% of control remaining” value was 119.969%. With `Cc1ccc(S(=O)(=O)NCC(=O)Nc2cc3ccccc3c(Br)n2)cc1` [CBK063300], the “% of control remaining” value is 112.723%. With `COc1cccc(CN2C(=O)CC3(C2=O)C(=O)N(CC(=O)c2ccccc2)c2ccccc23)c1` (centres unmarked) [CBK075984] the figure was 118.8%; with `Cc1cc(C)cc(OC(C)C(=O)N2CCCc3c(cnn3C)C2)c1` (centres unmarked) [CBK285270], 131.575%.
